# Assay results as given in paper PMC5385489.
# Chains of the proteins cited; added tags and fusions are not shown. Residues count along the entry.
# UniProt P20411, residues 19-86: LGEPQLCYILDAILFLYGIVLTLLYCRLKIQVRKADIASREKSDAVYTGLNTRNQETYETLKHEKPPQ
# Residue numbers refer to the chain shown, from its start. These are yes or no findings as the source states them, for the method shown. Binding seen in cells or lysates may run through a third protein. Some entries that bind do so weakly or less than the wild type. Tags and fused reporters may be left off the sequences shown.
# Assays:
# [1] = target: T1, myc-tagged rat Mincle R42I mutant (rat) (UniProt Q67EQ1); assay: co-IP; anti-myc immunoprecipitates from detergent-soluble lysates of RBL-2H3 cells stably expressing myc-tagged WT Mincle or the R42I mutant; immunoblotting with anti-FcεRIβ and anti-FcεRIγ
# T1 sequence: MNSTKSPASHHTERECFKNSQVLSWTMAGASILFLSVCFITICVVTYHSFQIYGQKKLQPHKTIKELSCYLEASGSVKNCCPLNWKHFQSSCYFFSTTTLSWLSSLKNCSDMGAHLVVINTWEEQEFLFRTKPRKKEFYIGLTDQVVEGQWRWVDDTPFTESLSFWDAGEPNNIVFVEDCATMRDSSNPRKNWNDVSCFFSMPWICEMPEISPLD
# [2] = target: T2, myc-tagged rat wild type (WT) Mincle (macrophage-inducible C-type lectin) (rat) (UniProt Q67EQ1); assay: as above
# T2 sequence: T1 sequence with I42R
substance,measurement,setting,value
γ-subunit of high-affinity IgE receptor (FcεRIγ) (from UniProt P20411 19-86),binding,[1],no binding
same,binding,[2],binds
